# Results published in article doi:10.1101/103333.
# Protein sequences, listed by entry. Tags and fused reporters are not part of them. Lines headed by an entry give the natural chain unless they say otherwise; changes in a name come on top. Chains listed by the source or under a name are the forms on record and can include a tag or linker.
# UniProt P14618: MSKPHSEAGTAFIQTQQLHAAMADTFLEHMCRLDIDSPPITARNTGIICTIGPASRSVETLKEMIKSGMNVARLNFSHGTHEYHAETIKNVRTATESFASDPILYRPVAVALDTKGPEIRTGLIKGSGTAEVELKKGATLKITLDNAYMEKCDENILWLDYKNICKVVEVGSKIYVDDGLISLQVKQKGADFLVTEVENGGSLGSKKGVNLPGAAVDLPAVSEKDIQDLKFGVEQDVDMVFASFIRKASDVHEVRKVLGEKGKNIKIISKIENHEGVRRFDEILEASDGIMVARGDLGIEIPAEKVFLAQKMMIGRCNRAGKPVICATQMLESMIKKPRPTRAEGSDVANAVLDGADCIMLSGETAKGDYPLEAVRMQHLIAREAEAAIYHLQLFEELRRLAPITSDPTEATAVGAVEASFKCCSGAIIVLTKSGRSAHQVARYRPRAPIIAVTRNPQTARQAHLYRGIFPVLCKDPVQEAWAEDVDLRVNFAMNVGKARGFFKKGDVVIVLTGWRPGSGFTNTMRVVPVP
# VC-PKM1 (P14618-2, form named): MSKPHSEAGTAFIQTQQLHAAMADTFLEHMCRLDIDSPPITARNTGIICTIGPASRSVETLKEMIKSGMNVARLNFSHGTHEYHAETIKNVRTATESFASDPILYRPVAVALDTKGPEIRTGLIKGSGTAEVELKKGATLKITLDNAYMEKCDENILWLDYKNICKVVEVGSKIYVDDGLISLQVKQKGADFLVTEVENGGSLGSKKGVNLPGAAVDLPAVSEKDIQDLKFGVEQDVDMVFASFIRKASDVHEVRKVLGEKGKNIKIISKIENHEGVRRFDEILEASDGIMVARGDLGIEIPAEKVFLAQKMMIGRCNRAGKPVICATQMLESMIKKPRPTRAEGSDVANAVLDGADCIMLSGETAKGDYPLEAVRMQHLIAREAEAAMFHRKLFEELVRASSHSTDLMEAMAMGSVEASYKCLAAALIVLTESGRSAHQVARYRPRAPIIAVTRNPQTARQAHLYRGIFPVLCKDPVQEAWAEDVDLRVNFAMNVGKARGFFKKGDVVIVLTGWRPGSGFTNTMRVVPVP
# Like-named read-outs stand apart in the source and are kept apart here. No constants are given. Whether binding was seen depends on the method and setting. For part of these data: Binding seen in cells or lysates may run through a third protein. Some binding calls cover weakened binding; strength is not graded here. For part of these data: Where a sequence is shown, tags or fusion partners need not be part of it.
# T1: GST-AKAP-Lbc fragment 5 (AKAP-Lbc 1923-2366) (UniProt Q12802)
# T1 sequence: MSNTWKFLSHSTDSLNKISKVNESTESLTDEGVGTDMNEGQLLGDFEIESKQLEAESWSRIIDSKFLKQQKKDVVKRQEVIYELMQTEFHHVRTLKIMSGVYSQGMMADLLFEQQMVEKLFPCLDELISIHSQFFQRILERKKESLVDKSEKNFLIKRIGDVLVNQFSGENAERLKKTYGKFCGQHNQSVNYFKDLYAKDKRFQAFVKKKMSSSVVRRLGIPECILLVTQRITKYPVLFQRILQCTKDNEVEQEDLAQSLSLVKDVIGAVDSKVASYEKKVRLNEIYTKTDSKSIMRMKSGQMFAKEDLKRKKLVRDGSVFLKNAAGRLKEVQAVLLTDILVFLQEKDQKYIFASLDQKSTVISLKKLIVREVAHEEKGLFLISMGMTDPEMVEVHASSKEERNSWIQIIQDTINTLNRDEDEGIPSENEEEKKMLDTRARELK
# T2: GST-AKAP-Lbc fragment 6 (AKAP-Lbc 2337-2817) (UniProt Q12802)
# T2 sequence: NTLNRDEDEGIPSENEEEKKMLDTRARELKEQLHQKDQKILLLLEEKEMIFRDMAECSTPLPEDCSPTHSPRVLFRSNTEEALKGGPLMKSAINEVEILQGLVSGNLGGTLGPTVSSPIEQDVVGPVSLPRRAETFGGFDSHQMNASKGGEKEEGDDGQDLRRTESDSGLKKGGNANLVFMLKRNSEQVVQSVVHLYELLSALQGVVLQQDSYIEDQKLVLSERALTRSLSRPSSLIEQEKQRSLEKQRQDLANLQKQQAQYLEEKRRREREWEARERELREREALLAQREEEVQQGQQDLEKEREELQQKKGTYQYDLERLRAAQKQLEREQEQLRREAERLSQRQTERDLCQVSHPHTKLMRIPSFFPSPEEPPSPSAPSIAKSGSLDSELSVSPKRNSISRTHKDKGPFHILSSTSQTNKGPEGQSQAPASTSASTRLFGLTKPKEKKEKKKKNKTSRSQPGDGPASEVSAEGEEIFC
# How the values were obtained:
# [1] = molecular target: Flag-AKAP-Lbc (expressed in HEK 293 cells) (UniProt Q12802); assay: co-IP
# [2] = molecular target: T1, GST-AKAP-Lbc fragment 5 (AKAP-Lbc 1923-2366); assay: pull-down
# [3] = molecular target: T2, GST-AKAP-Lbc fragment 6 (AKAP-Lbc 2337-2817); assay: pull-down
# VN-AKAP-Lbc = VN-AKAP-Lbc (UniProt Q12802); assay: split reporter
# [4] = molecular target: endogenous AKAP-Lbc (HeLa) (human (endogenous in HeLa)) (UniProt Q12802); assay: co-IP
# [5] = molecular target: Flag-AKAP-Lbc (expressed in HeLa cells) (UniProt Q12802); assay: co-IP
# [6] = molecular target: Flag-AKAP-Lbc (expressed in HEK 293 cells) (UniProt Q12802); assay: co-IP; remark: listed apart in the source
# full length HA-PKM2 = full length HA-PKM2 (UniProt P14618); assay: co-IP
molecule,measurement,setting,value
HA-PKM2 1-303 (from UniProt P14618 1-303) (domain or fragment),binding,[1],no binding
HA-PKM2 1-439 (from UniProt P14618 1-439) (domain or fragment),binding,[1],binds
His-PKM2 (from UniProt P14618 1-531) (enzyme),binding,[2],binds
same,binding,[3],binds
VC-PKM1 (from UniProt P14618-2 1-531) (enzyme),binding,VN-AKAP-Lbc,binds weakly
VC-PKM2 (from UniProt P14618 1-531) (enzyme),binding,VN-AKAP-Lbc,binds
endogenous PKM2 (HeLa) (from UniProt P14618 1-531) (enzyme),binding,[4],binds
same,binding,[5],binds
full length HA-PKM2 (from UniProt P14618 1-531) (enzyme),binding,[1],binds
same,binding,[6],binds
"Myc-AKAP-Lbc fragment 5 (domain or fragment, UniProt Q12802-2 1923-2366) MSNTWKFLSHSTDSLNKISKVNESTESLTDEGVGTDMNEGQLLGDFEIESKQLEAESWSRIIDSKFLKQQKKDVVKRQEVIYELMQTEFHHVRTLKIMSGVYSQGMMADLLFEQQMVEKLFPCLDELISIHSQFFQRILERKKESLVDKSEKNFLIKRIGDVLVNQFSGENAERLKKTYGKFCGQHNQSVNYFKDLYAKDKRFQAFVKKKMSSSVVRRLGIPECILLVTQRITKYPVLFQRILQCTKDNEVEQEDLAQSLSLVKDVIGAVDSKVASYEKKVRLNEIYTKTDSKSIMRMKSGQMFAKEDLKRKKLVRDGSVFLKNAAGRLKEVQAVLLTDILVFLQEKDQKYIFASLDQKSTVISLKKLIVREVAHEEKGLFLISMGMTDPEMVEVHASSKEERNSWIQIIQDTINTLNRDEDEGIPSENEEEKKMLDTRARELK",binding,full length HA-PKM2,binds
"Myc-AKAP-Lbc fragment 6 (domain or fragment, UniProt Q12802-2 2337-2817) NTLNRDEDEGIPSENEEEKKMLDTRARELKEQLHQKDQKILLLLEEKEMIFRDMAECSTPLPEDCSPTHSPRVLFRSNTEEALKGGPLMKSAINEVEILQGLVSGNLGGTLGPTVSSPIEQDVVGPVSLPRRAETFGGFDSHQMNASKGGEKEEGDDGQDLRRTESDSGLKKGGNANLVFMLKRNSEQVVQSVVHLYELLSALQGVVLQQDSYIEDQKLVLSERALTRSLSRPSSLIEQEKQRSLEKQRQDLANLQKQQAQYLEEKRRREREWEARERELREREALLAQREEEVQQGQQDLEKEREELQQKKGTYQYDLERLRAAQKQLEREQEQLRREAERLSQRQTERDLCQVSHPHTKLMRIPSFFPSPEEPPSPSAPSIAKSGSLDSELSVSPKRNSISRTHKDKGPFHILSSTSQTNKGPEGQSQAPASTSASTRLFGLTKPKEKKEKKKKNKTSRSQPGDGPASEVSAEGEEIFC",binding,full length HA-PKM2,binds
